Experimental data published in patent US10682419B2 (Onyx Therapeutics, Inc., priority 2012, dated 2020).

Assay: general procedure: solution-phase peptide synthesis; HBTU/HOBt/DIEA; DMTMM/NMM; HATU/DIPEA

Substance	step yield (late stage modification step)	further results
4-((4S,7S,10S,13S)-10-benzyl-7-isobutyl-15-methyl-13-((R)-2-methyloxirane-2-carbonyl)-2,5,8,11-tetraoxo-4-phenethyl-3,6,9,12-tetraazahexadecyl)-4-(4-(pent-4-ynoyloxy)benzyl)morpholin-4-ium Bromide (27)	–	step yield (late stage modification step, bromide): 21%
(2S)—N—((S)-1-((2S,4S)-2-hydroxy-1-iodo-2,6-dimethyl-3-oxoheptan-4-ylcarbamoyl)-2-phenylethyl)-2-((S)-2-(2-morpholinoacetamido)-4-phenylbutanamido)-4-methylpentanamide	100%	–
(4S,7S,10S,13S,15R)-10-Benzyl-15-hydroxy-7,13-diisobutyl-15-methyl-1-morpholino-2,5,8,11,14-pentaoxo-4-phenethyl-3,6,9,12-tetraazahexadecan-16-yl 2-fluoro-5-(prop-2-yn-1-ylcarbamoyl)benzenesulfonate (5)	–	step yield (coupling step): 32%
(4S,7S,10S,13S,15R)-10-Benzyl-15-hydroxy-7,13-diisobutyl-15-methyl-1-morpholino-2,5,8,11,14-pentaoxo-4-phenethyl-3,6,9,12-tetraazahexadecan-16-yl methyl prop-2-yn-1-yl Phosphate	31%	–
(4S,7S,10S,13S,15S)-10-Benzyl-16-iodo-7,13-diisobutyl-15-methyl-1-morpholino-2,5,8,11,14-pentaoxo-4-phenethyl-3,6,9,12-tetraazahexadecan-15-yl 4-oxo-4-(prop-2-yn-1-ylamino)butanoate (23)	66%	–
(4S,7S,10S,13S,15S)-10-benzyl-16-iodo-7,13-diisobutyl-15-methyl-1-morpholino-2,5,8,11,14-pentaoxo-4-phenethyl-3,6,9,12-tetraazahexadecan-15-yl 4-methoxybenzyl succinate	90%	–
Benzyl 2-(4-((((4S,7S,10S,13S,15R)-10-benzyl-15-hydroxy-7,13-diisobutyl-15-methyl-1-morpholino-2,5,8,11,14-pentaoxo-4-phenethyl-3,6,9,12-tetraazahexadecan-16-yl)oxy)sulfonyl)-3,5-dimethylphenoxy)acetate (8)	–	step yield (coupling step): 82.8%
